From the supplement of paper PMC10849652
Some of the results follow.

Protein sequences, listed by entry. Tags and fused reporters are not part of them. Lines headed by an entry give the natural chain unless they say otherwise; changes in a name come on top.
UniProt P62166, whole entry, looked up: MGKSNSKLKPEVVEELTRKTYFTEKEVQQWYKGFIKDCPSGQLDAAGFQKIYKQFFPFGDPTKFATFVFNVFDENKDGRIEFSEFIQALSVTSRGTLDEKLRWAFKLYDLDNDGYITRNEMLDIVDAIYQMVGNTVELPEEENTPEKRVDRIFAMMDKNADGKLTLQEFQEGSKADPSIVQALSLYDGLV
UniProt Q14CX7, whole entry, looked up: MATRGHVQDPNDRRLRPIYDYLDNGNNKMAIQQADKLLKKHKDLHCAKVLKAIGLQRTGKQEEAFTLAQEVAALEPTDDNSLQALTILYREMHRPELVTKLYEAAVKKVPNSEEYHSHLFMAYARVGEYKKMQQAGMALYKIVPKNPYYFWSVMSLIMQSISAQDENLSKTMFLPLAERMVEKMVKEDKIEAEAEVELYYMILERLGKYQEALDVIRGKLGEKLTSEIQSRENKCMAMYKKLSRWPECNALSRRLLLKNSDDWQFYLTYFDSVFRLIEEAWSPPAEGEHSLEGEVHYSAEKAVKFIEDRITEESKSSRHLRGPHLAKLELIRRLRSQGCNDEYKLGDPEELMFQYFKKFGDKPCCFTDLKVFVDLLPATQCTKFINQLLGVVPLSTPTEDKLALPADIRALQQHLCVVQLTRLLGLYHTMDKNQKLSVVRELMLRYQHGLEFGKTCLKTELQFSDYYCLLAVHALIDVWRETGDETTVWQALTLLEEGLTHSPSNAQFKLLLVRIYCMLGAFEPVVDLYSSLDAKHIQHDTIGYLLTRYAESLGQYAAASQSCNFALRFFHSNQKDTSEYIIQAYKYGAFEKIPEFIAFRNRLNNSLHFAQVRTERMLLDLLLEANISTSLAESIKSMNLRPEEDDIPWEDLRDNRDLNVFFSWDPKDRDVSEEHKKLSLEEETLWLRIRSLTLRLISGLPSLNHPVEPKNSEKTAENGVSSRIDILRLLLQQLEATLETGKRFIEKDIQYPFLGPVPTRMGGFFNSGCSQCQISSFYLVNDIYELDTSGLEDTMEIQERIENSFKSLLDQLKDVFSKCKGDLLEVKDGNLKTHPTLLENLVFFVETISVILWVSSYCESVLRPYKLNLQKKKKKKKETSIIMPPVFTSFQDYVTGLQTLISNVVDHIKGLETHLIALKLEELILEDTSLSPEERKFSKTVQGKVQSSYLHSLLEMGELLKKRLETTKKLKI
UniProt O43776: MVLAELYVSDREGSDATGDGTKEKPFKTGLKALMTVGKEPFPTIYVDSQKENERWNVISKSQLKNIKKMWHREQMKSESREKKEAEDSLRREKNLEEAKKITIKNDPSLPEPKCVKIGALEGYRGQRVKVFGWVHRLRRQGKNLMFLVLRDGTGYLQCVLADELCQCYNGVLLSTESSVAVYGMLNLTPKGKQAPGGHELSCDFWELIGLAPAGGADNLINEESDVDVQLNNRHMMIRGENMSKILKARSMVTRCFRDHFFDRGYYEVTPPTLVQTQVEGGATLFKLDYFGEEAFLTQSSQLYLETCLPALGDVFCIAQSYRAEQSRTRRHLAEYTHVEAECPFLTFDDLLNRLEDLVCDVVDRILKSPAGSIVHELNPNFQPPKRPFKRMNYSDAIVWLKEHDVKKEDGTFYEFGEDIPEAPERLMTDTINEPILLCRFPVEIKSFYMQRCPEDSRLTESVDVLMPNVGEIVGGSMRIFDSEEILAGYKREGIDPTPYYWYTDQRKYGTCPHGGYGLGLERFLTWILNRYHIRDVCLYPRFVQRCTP
UniProt Q6IA69: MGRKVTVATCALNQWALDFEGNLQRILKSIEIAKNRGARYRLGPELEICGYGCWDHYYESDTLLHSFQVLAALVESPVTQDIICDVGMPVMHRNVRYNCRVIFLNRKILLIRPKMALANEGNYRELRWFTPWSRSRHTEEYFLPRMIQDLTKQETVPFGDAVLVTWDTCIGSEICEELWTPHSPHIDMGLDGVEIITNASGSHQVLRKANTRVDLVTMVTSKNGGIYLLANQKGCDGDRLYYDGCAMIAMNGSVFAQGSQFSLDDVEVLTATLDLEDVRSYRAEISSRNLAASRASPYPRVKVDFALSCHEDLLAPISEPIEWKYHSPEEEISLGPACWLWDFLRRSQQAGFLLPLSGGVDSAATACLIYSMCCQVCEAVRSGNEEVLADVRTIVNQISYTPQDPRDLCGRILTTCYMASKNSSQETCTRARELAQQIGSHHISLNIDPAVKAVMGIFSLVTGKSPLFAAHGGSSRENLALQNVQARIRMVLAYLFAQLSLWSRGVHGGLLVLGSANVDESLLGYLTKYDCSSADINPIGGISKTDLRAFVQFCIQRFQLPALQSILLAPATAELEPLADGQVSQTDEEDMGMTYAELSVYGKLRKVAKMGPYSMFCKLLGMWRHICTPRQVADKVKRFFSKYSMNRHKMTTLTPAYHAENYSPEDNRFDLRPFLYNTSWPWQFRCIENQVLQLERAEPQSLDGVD
UniProt Q68D85: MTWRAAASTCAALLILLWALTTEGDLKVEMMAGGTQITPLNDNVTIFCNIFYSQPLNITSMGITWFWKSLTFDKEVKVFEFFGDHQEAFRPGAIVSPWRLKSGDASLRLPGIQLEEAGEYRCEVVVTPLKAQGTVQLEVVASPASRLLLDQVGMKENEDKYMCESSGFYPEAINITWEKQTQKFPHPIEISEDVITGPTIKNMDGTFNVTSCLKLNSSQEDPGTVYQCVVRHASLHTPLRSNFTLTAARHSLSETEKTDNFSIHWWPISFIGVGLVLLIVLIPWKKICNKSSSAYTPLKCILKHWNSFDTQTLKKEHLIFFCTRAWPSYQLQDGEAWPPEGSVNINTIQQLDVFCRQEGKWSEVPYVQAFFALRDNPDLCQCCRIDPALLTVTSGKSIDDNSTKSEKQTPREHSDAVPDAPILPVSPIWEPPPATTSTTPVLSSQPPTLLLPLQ
UniProt Q9P032: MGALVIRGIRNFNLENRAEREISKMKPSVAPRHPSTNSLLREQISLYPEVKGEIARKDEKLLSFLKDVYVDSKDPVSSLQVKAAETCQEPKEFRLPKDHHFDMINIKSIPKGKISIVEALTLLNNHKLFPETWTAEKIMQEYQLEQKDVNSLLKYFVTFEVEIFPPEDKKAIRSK
UniProt O95298, whole entry, looked up: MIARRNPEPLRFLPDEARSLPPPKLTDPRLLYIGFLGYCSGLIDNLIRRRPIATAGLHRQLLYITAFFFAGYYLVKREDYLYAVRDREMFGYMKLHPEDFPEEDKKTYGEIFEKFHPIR
UniProt P41227: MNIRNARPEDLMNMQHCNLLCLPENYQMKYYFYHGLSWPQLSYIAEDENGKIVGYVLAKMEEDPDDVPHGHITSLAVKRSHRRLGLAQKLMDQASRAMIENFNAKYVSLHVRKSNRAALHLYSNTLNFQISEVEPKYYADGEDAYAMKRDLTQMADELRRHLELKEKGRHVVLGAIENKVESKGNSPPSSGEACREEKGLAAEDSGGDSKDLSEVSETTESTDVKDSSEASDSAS
UniProt Q9Y5N5: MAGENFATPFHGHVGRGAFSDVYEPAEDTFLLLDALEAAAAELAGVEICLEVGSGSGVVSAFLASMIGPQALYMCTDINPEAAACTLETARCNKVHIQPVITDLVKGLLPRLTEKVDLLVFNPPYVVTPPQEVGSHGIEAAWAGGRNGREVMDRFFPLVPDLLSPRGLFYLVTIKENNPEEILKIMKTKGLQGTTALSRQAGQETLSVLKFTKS
UniProt Q5TEU4: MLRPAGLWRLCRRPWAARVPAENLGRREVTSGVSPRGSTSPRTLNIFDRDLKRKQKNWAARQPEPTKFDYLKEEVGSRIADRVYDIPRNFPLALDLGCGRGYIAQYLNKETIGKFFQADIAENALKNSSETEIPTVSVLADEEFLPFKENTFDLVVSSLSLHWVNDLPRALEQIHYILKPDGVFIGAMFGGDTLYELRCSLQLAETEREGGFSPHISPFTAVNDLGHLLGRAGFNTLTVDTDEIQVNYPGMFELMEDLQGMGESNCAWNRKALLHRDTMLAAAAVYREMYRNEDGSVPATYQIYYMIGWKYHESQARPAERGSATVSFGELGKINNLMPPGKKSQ
UniProt O95544: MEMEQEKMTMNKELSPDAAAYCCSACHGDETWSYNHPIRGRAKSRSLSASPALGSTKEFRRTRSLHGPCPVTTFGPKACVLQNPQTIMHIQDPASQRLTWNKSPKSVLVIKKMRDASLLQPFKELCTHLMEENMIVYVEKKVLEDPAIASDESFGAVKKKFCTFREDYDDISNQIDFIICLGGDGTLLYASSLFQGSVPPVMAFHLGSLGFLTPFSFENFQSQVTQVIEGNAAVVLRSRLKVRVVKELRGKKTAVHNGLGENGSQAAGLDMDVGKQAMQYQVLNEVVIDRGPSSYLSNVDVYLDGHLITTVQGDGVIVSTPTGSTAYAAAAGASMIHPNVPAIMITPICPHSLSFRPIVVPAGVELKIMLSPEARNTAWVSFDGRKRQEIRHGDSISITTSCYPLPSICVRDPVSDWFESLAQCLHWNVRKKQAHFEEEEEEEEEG
UniProt E9PAV3, whole entry, looked up: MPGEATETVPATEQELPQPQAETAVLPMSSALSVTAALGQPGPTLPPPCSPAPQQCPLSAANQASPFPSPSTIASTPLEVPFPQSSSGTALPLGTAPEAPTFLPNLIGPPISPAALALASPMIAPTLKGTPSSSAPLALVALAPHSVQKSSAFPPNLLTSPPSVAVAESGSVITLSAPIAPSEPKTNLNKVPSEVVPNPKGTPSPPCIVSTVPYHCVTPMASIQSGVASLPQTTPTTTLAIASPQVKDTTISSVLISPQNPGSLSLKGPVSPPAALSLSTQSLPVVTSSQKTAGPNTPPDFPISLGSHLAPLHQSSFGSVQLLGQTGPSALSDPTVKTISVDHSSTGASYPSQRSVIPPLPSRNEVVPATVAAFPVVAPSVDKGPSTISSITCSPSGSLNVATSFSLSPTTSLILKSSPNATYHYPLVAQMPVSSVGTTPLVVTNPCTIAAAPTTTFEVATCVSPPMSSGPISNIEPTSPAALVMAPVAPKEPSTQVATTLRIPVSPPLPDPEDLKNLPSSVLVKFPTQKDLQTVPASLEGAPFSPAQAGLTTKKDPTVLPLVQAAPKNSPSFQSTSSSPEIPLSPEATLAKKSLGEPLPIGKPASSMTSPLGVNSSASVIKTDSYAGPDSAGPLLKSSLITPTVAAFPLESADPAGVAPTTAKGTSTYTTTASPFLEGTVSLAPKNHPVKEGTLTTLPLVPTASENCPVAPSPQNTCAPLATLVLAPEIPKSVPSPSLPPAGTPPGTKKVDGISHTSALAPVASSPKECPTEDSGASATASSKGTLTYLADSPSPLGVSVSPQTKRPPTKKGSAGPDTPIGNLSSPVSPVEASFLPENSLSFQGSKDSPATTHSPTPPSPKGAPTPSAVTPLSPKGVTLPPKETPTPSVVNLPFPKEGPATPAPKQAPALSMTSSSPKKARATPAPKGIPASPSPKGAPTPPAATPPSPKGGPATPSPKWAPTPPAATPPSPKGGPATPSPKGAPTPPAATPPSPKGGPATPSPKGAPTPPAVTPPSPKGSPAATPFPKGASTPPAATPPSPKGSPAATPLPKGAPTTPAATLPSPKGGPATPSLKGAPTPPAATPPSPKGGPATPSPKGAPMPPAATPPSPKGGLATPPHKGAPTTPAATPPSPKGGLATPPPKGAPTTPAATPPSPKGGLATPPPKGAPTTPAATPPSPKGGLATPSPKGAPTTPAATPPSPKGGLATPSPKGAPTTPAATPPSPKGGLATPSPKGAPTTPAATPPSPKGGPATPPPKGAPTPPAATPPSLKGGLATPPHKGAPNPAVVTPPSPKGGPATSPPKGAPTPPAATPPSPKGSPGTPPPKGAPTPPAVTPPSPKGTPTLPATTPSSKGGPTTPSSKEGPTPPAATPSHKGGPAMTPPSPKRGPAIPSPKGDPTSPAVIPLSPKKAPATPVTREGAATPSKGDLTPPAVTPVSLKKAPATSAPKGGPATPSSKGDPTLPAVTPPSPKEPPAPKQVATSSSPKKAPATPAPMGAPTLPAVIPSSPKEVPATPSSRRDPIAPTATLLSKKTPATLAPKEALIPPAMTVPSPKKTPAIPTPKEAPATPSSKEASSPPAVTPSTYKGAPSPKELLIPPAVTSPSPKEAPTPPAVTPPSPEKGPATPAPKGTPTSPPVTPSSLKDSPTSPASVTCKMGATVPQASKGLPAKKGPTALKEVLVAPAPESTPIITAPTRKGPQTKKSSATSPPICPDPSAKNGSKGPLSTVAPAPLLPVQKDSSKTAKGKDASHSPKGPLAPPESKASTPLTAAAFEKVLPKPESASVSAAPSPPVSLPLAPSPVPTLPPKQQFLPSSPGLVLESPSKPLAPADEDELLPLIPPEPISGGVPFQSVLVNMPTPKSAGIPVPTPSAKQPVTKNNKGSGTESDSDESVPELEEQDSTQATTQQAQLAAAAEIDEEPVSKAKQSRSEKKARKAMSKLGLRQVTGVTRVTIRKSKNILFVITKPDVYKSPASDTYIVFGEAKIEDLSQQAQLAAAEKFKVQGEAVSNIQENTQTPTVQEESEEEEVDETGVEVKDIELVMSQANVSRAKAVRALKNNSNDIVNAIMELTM

What was measured:
Test in all cases: log2 fold change, soluble protein after heating vs DMSO (PISA); higher = thermal stabilisation; K562 cells, 10 uM, 30 min; active = over 0.2 and 3.5 SD of the protein, either way, in both replicates (recomputed)
[1] = compound: CC1=C(C=C(C=C1)NC(=O)C2=CC(=CC=C2)C(C)(C)C#N)NC3=CC4=C(C=C3)N=CN(C4=O)C
Procedure, shortened: (§1)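 K562 cells at 2×10^6 cells/mL were treated for 30 min with 10 μM compound, and aliquots were heated for 3 min over 48°C-58°C before pooling. Extraction used PBS with 0.5% NP-40 at 4°C, and soluble protein was the supernatant after 21,000xg for 90 min, measured by TMTpro 16plex LC-MS/MS with channel sums equalised. Thermal stability values, relative to control samples and from duplicates, are log2 fold changes.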

[2] = compound: CC1=C(C=C(C=C1)NC(=O)C2=CC(=CC=C2)N(C)C)NC(=O)C3=CC=C(C=C3)O
Procedure, shortened: as §1

[3] = compound: CC1=CC=C(C=C1)SC2=C3C=C(SC3=CN=C2)C(=O)N
Procedure, shortened: as §1

[4] = compound: CC1=NC(=CC=C1)C2=C(N=C(N2)C(C)(C)C)C3=CC4=NC=CN=C4C=C3
Procedure, shortened: as §1

Nexturastat A = compound: CCCCN(Cc1ccc(C(=O)NO)cc1)C(=O)Nc1ccccc1 [Nexturastat A]
Procedure, shortened: as §1

vemurafenib = compound: CCCS(=O)(=O)Nc1ccc(F)c(C(=O)c2c[nH]c3ncc(-c4ccc(Cl)cc4)cc23)c1F [vemurafenib]
Procedure, shortened: as §1

[5] = compound: CCCS(=O)(=O)Nc1ccc(F)c(C(=O)c2c[nH]c3ncc(Cl)cc23)c1F
Procedure, shortened: as §1

[6] = compound: CCCc1cc(C)[nH]c(=O)c1CNC(=O)c1cc(-c2ccnc(N3CCN(C)CC3)c2)cc2c1cnn2C(C)C
Procedure, shortened: as §1

givinostat = compound: CCN(CC)Cc1ccc2cc(COC(=O)Nc3ccc(C(=O)NO)cc3)ccc2c1 [givinostat]
Procedure, shortened: as §1

barasertib = compound: CCN(CCCOc1ccc2c(Nc3cc(CC(=O)Nc4cccc(F)c4)[nH]n3)ncnc2c1)CCOP(=O)(O)O [barasertib]
Procedure, shortened: as §1

[7] = compound: CC[C@@H]1C(=O)N(C)c2cnc(Nc3ccc(C(=O)NC4CCN(C)CC4)cc3OC)nc2N1C1CCCC1
Procedure, shortened: as §1

volasertib = compound: CC[C@@H]1C(=O)N(C)c2cnc(Nc3ccc(C(=O)N[C@H]4CC[C@H](N5CCN(CC6CC6)CC5)CC4)cc3OC)nc2N1C(C)C [volasertib]
Procedure, shortened: as §1

[8] = compound: CC[C@H](C)N1C=C(C2=C(C=C(C=C21)C3=CN=C(C=C3)N4CCNCC4)C(=O)NCC5=C(C=C(NC5=O)C)C)C
Procedure, shortened: as §1

epoxomicin = compound: CC[C@H](C)[C@@H](C(=O)N[C@@H]([C@@H](C)O)C(=O)N[C@@H](CC(C)C)C(=O)[C@]1(CO1)C)NC(=O)[C@H]([C@@H](C)CC)N(C)C(=O)C [epoxomicin]
Procedure, shortened: as §1

[9] = compound: CCn1c(C(=O)N(C2CC2)C2CC2)cc2c3c(ncn3C)c(Nc3cc(C)n(C)n3)nc21
Procedure, shortened: as §1

[10] = compound: CCn1cc(-c2ccnc3[nH]c(-c4cccc(CN(C)C)c4)cc23)c(-c2ccc(NC(=O)N(C)C)cc2)n1
Procedure, shortened: as §1

[11] = compound: CN(C)CC(=O)Nc1ccc2[nH]c(=O)c3ccccc3c2c1
Procedure, shortened: as §1

rosiglitazone = compound: CN(CCOC1=CC=C(C=C1)C[C@H]2C(=O)NC(=O)S2)C3=CC=CC=N3 (racemic) [rosiglitazone]
Procedure, shortened: as §1

[12] = compound: CN1C2=C(C3=C1C(=O)N(N=C3)CC4=CC(=CC=C4)N)SC(=C2)S(=O)C
Procedure, shortened: as §1

[13] = compound: CN1CCC(CNc2ccc3ncc(-c4cccc(OC(F)(F)F)c4)n3n2)CC1
Procedure, shortened: as §1

Measured: log2 fold change

NCS1 (UniProt P62166)
inactive: [1] 0.037 | [2] 0.072 | [3] 0.077 | [4] 0.03 | Nexturastat A -0.038 | vemurafenib 0.041 | [5] 0.038 | [6] 0.001 | givinostat -0.05 | barasertib -0.021 | [7] -0.022 | volasertib -0.039 | [8] 0.029 | epoxomicin -0.035 | [9] 0.038 | [10] -0.013 | [11] 0.013 | rosiglitazone 0.017 | [12] -0.038 | [13] -0.029

NDUFB11 isoform 2 (UniProt Q9NX14)
inactive: [1] 0.011 | [2] -0.043 | [3] 0.008 | [4] 0.014 | Nexturastat A 0.019 | vemurafenib 0.037 | [5] 0.019 | [6] 0.002 | givinostat -0.05 | barasertib 0.013 | [7] -0.053 | volasertib -0.034 | [8] -0.011 | epoxomicin 0.034 | [9] 0.038 | [10] 0.007 | [11] -0.013 | rosiglitazone 0 | [12] 0.024 | [13] -0.008

NEFH (UniProt P12036)
inactive: [1] -0.032 | [2] -0.038 | [3] 0.019 | [4] -0.15 | Nexturastat A 0.331 | vemurafenib -0.031 | [5] -0.073 | [6] 0.046 | givinostat 0.043 | barasertib -0.087 | [7] 0.259 | volasertib 0.069 | [8] -0.02 | epoxomicin -0.206 | [9] 0.125 | [10] 0.416 | [11] -0.109 | rosiglitazone -0.13 | [12] 0.332 | [13] 0.098

NAA25 (UniProt Q14CX7)
inactive: [1] 0.018 | [2] -0.013 | [3] 0.008 | [4] 0.032 | Nexturastat A -0.065 | vemurafenib 0.024 | [5] 0.007 | [6] -0.017 | givinostat -0.005 | barasertib 0.009 | [7] -0.007 | volasertib -0.057 | [8] 0.019 | epoxomicin -0.005 | [9] -0.019 | [10] -0.112 | [11] 0.004 | rosiglitazone 0.065 | [12] -0.054 | [13] -0.043

NARS1 (UniProt O43776)
inactive: [1] 0.005 | [2] 0.005 | [3] -0.056 | [4] 0.004 | Nexturastat A -0.023 | vemurafenib -0.025 | [5] -0.049 | [6] -0.019 | givinostat -0.038 | barasertib -0.006 | [7] 0.017 | volasertib 0.065 | [8] -0.023 | epoxomicin -0.001 | [9] 0.025 | [10] 0.037 | [11] -0.04 | rosiglitazone 0.007 | [12] -0.013 | [13] 0.022

NCALD (UniProt P61601)
inactive: [1] 0 | [2] -0.006 | [3] 0.021 | [4] -0.016 | Nexturastat A -0.097 | vemurafenib 0.016 | [5] 0.109 | [6] -0.021 | givinostat -0.022 | barasertib 0.024 | [7] -0.092 | volasertib -0.11 | [8] -0.043 | epoxomicin -0.011 | [9] -0.035 | [10] -0.086 | [11] 0.002 | rosiglitazone -0.012 | [12] -0.013 | [13] -0.042

NADSYN1 (UniProt Q6IA69)
inactive: [1] -0.05 | [2] -0.026 | [3] -0.028 | [4] -0.008 | Nexturastat A -0.064 | vemurafenib -0.026 | [5] 0.037 | [6] -0.032 | givinostat -0.044 | barasertib -0.044 | [7] 0.154 | volasertib 0.073 | [8] 0.008 | epoxomicin 0.005 | [9] 0.007 | [10] 0.012 | [11] -0.006 | rosiglitazone -0.025 | [12] -0.024 | [13] 0.042

NCR3LG1 (UniProt Q68D85)
inactive: [1] -0.044 | [2] -0.017 | [3] -0.073 | [4] 0.025 | Nexturastat A 0.011 | vemurafenib -0.016 | [5] -0.12 | [6] 0.012 | givinostat 0.027 | barasertib -0.024 | [7] -0.049 | volasertib 0.041 | [8] 0.056 | epoxomicin 0.019 | [9] -0.042 | [10] -0.151 | [11] -0.005 | rosiglitazone 0.01 | [12] 0.017 | [13] 0.133

NDUFB4 (UniProt O95168)
inactive: [1] 0.04 | [2] -0.001 | [3] 0 | [4] 0 | Nexturastat A 0.023 | vemurafenib -0.027 | [5] -0.021 | [6] 0.097 | givinostat 0.022 | barasertib -0.003 | [7] -0.064 | volasertib -0.064 | [8] 0.026 | epoxomicin 0.052 | [9] -0.016 | [10] -0.054 | [11] 0.01 | rosiglitazone -0.011 | [12] -0.053 | [13] -0.135

NDUFAF4 (UniProt Q9P032)
inactive: [1] 0.024 | [2] 0.011 | [3] 0.059 | [4] 0.052 | Nexturastat A -0.059 | vemurafenib 0.01 | [5] 0.065 | [6] -0.037 | givinostat 0.011 | barasertib 0.018 | [7] -0.057 | volasertib -0.037 | [8] -0.006 | epoxomicin 0.042 | [9] -0.009 | [10] -0.016 | [11] 0.005 | rosiglitazone 0.008 | [12] -0.07 | [13] -0.092

NDUFC2 (UniProt O95298)
inactive: [1] 0.014 | [2] -0.037 | [3] 0.014 | [4] 0.201 | Nexturastat A 0.001 | vemurafenib -0.043 | [5] -0.047 | [6] -0.092 | givinostat -0.058 | barasertib 0.012 | [7] 0.043 | volasertib 0.033 | [8] -0.045 | epoxomicin 0.142 | [9] 0.047 | [10] 0.011 | [11] -0.003 | rosiglitazone 0.008 | [12] 0.02 | [13] -0.121

NAA10 (UniProt P41227)
inactive: [1] 0.004 | [2] 0.008 | [3] 0.042 | [4] 0.06 | Nexturastat A -0.094 | vemurafenib 0.056 | [5] 0.064 | [6] 0.052 | givinostat 0.014 | barasertib 0.029 | [7] -0.043 | volasertib -0.031 | [8] 0.037 | epoxomicin 0.027 | [9] 0.022 | [10] 0 | [11] 0.007 | rosiglitazone 0.015 | [12] -0.115 | [13] -0.014

N6AMT1 (UniProt Q9Y5N5)
inactive: [1] 0.125 | [2] -0.015 | [3] -0.004 | [4] 0.037 | Nexturastat A -0.012 | vemurafenib -0.031 | [5] -0.04 | [6] -0.031 | givinostat -0.139 | barasertib 0.044 | [7] 0.064 | volasertib 0.002 | [8] -0.008 | epoxomicin 0.109 | [9] -0.017 | [10] -0.169 | [11] 0.049 | rosiglitazone 0.019 | [12] -0.078 | [13] -0.001

NDUFAF5 (UniProt Q5TEU4)
inactive: [1] -0.046 | [2] 0.054 | [3] -0.038 | [4] 0.047 | Nexturastat A -0.139 | vemurafenib 0.026 | [5] -0.046 | [6] 0.005 | givinostat -0.032 | barasertib -0.163 | [7] 0.082 | volasertib 0.049 | [8] -0.068 | epoxomicin 0.056 | [9] -0.002 | [10] -0.007 | [11] -0.038 | rosiglitazone -0.171 | [12] -0.091 | [13] -0.069

NADK (UniProt O95544)
inactive: [1] -0.013 | [2] -0.014 | [3] 0.01 | [4] 0.009 | Nexturastat A 0.038 | vemurafenib -0.065 | [5] -0.036 | [6] -0.052 | givinostat -0.003 | barasertib 0.007 | [7] 0.043 | volasertib 0.011 | [8] -0.001 | epoxomicin -0.031 | [9] 0.002 | [10] 0.007 | [11] -0.088 | rosiglitazone -0.004 | [12] -0.007 | [13] -0.011

NACA (UniProt E9PAV3)
inactive: [1] -0.011 | [2] 0.043 | [3] 0.013 | [4] 0.023 | Nexturastat A 0.043 | vemurafenib -0.03 | [5] 0.02 | [6] -0.042 | givinostat -0.01 | barasertib -0.009 | [7] 0.05 | volasertib 0.045 | [8] -0.034 | epoxomicin -0.025 | [9] 0.017 | [10] 0.007 | [11] -0.059 | rosiglitazone -0.034 | [12] -0.025 | [13] -0.012

4 neighbouring entries out of the list so far:
NCS1 (UniProt P62166)
inactive: [1] 0.037 | [2] 0.072 | [3] 0.077 | [4] 0.03 | Nexturastat A -0.038 | vemurafenib 0.041 | [5] 0.038 | [6] 0.001 | givinostat -0.05 | barasertib -0.021 | [7] -0.022 | volasertib -0.039 | [8] 0.029 | epoxomicin -0.035 | [9] 0.038 | [10] -0.013 | [11] 0.013 | rosiglitazone 0.017 | [12] -0.038 | [13] -0.029

NDUFB11 isoform 2 (UniProt Q9NX14)
inactive: [1] 0.011 | [2] -0.043 | [3] 0.008 | [4] 0.014 | Nexturastat A 0.019 | vemurafenib 0.037 | [5] 0.019 | [6] 0.002 | givinostat -0.05 | barasertib 0.013 | [7] -0.053 | volasertib -0.034 | [8] -0.011 | epoxomicin 0.034 | [9] 0.038 | [10] 0.007 | [11] -0.013 | rosiglitazone 0 | [12] 0.024 | [13] -0.008

NEFH (UniProt P12036)
inactive: [1] -0.032 | [2] -0.038 | [3] 0.019 | [4] -0.15 | Nexturastat A 0.331 | vemurafenib -0.031 | [5] -0.073 | [6] 0.046 | givinostat 0.043 | barasertib -0.087 | [7] 0.259 | volasertib 0.069 | [8] -0.02 | epoxomicin -0.206 | [9] 0.125 | [10] 0.416 | [11] -0.109 | rosiglitazone -0.13 | [12] 0.332 | [13] 0.098

NAA25 (UniProt Q14CX7)
inactive: [1] 0.018 | [2] -0.013 | [3] 0.008 | [4] 0.032 | Nexturastat A -0.065 | vemurafenib 0.024 | [5] 0.007 | [6] -0.017 | givinostat -0.005 | barasertib 0.009 | [7] -0.007 | volasertib -0.057 | [8] 0.019 | epoxomicin -0.005 | [9] -0.019 | [10] -0.112 | [11] 0.004 | rosiglitazone 0.065 | [12] -0.054 | [13] -0.043
